How the values were obtained:
[1] = Batch test of polymerisation control in refluxing styrene monomer; conditions: for Effect (inhibitor, retarder or none): styrene monomer, 120° C., reduced pressure; for Polymer (ppm) @ 30 mins: sample at 30 mins
[2] = Continuous flow test of polymerisation control, polymer at steady state; conditions: styrene monomer, 120° C., reduced pressure, dwell time two hours, steady state after 240 minutes
[3] = styrene monomer refluxing under reduced pressure at 120° C.

SMILES | Polymer (ppm) @ 180 mins ([1]; styrene monomer refluxing under reduced pressure at 120° C., sample at 180 mins) | Effect (inhibitor, retarder or none) [1] | Polymer (ppm) @ 30 mins [1, 3] | Polymer at steady state (ppm) [2]
CCC(C)C1([N+](=O)[O-])C=C([N+](=O)[O-])C=CC1O (centres unmarked) [Control 1, 2,4-dinitro-ortho-sec-butyl-phenol] | 6000 ppm | Retarder |  | 
CC(C)(C)C1=CC(=O)C(C(C)(C)C)=CC1=O [Control 5, 2,5 di-tert-butylbenzoquinone] |  | neither inhibitors nor retarders and None | >10,000 ppm | 
ON(Cc1ccccc1)Cc1ccccc1 [Control 6, N,N-dibenzyl hydroxylamine] |  | neither inhibitors nor retarders and None | >10,000 ppm | 
CCC(C)C1([N+](=O)[O-])C=C([N+](=O)[O-])C=CC1O (centres unmarked) [Control 7, 2,4-dinitro-ortho-sec-butyl-phenol] |  |  |  | 5000 ppm
CCC(C)C1([N+](=O)[O-])C=C([N+](=O)[O-])C=CC1O (centres unmarked) [Control 8, 2,4-dinitro-ortho-sec-butyl-phenol] |  |  |  | 1000 ppm
